Source: US20040072268A1
No constants are given. Whether binding was seen depends on the method and setting. In cells and extracts the contact can be indirect. Some binding calls cover weakened binding; strength is not graded here.

The chains behind the UniProt entries cited, without tags or fusion partners. Where a name states a change or a piece, a line headed by the entry shows the natural chain unless it says otherwise.
UniProt P38398: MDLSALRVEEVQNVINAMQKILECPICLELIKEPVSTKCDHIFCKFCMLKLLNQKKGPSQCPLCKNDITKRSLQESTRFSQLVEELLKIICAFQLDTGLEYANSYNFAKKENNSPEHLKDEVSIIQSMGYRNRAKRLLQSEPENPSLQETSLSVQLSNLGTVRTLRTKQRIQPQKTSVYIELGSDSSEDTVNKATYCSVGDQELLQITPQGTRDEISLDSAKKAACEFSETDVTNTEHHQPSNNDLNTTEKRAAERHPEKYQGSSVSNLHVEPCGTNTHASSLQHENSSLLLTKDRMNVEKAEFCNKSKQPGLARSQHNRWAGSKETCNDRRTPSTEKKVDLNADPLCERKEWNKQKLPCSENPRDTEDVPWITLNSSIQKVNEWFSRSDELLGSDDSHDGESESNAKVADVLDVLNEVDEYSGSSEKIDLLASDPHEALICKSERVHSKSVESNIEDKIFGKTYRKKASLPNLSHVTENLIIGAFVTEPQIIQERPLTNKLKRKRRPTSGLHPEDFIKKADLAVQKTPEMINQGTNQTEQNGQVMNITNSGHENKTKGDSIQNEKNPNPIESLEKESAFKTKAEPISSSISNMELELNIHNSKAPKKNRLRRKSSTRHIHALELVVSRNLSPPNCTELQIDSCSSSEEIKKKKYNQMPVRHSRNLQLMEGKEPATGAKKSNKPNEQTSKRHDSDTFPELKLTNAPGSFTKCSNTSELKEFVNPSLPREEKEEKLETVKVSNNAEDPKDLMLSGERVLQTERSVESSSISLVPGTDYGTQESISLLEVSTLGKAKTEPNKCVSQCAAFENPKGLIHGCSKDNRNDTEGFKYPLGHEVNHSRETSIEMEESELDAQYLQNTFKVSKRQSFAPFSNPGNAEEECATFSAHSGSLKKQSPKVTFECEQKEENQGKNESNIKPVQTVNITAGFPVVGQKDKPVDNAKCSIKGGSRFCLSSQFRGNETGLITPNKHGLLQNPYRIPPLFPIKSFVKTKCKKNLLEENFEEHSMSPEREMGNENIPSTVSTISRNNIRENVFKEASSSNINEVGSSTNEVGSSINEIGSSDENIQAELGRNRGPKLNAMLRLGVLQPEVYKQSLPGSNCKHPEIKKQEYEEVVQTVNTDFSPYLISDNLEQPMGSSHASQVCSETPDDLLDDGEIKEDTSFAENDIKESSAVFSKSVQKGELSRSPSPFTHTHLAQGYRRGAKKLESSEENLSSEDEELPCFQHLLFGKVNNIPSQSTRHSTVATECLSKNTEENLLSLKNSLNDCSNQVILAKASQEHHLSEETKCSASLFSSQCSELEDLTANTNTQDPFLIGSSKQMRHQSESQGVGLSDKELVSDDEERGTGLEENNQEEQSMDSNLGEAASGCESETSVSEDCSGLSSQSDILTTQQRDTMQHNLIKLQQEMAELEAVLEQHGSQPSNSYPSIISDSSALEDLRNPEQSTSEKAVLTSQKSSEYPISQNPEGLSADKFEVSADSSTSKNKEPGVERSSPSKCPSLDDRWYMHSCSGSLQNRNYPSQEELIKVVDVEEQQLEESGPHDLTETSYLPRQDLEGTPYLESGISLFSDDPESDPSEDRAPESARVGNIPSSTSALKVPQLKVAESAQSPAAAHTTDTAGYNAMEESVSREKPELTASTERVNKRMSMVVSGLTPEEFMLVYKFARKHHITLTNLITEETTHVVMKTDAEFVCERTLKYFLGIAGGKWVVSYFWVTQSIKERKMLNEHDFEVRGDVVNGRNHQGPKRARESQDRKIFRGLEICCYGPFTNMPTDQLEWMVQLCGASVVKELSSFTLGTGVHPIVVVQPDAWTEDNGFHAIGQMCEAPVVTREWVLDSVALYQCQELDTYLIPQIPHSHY
UniProt P46736: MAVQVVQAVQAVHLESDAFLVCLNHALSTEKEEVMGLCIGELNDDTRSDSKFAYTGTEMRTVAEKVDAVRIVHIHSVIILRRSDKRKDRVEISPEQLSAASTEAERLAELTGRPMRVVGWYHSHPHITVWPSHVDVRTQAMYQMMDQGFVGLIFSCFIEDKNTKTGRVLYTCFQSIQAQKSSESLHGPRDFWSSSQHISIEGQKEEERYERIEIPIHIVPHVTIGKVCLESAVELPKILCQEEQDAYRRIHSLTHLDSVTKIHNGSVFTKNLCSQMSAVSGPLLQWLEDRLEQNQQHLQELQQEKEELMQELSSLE
UniProt Q99728: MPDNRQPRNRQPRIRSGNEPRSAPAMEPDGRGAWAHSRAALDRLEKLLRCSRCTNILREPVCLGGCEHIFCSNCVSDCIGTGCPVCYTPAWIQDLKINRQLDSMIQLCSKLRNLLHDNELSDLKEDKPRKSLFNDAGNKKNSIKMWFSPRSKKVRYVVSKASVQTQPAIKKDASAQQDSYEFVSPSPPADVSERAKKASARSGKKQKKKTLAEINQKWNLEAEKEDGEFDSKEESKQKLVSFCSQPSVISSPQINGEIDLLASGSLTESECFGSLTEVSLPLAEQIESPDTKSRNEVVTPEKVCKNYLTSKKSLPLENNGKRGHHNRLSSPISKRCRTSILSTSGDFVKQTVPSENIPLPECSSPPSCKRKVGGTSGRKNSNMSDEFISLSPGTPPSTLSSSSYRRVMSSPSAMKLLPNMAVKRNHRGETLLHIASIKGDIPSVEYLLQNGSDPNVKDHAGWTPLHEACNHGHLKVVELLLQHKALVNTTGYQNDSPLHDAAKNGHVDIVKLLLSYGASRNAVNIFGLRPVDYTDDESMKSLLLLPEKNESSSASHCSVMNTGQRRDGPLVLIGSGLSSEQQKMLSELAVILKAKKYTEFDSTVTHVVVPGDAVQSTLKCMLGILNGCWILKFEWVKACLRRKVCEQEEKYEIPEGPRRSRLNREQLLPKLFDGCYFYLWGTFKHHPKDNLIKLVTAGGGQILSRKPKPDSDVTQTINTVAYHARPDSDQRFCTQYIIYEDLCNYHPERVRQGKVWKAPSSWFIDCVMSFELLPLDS

What was measured:
[1] = biological target: GST-BRCA1 fragment F4 (BRCA1 residues 758-1064) (Homo sapiens (Human)) (UniProt P38398); assay: GST pull-down of (His)6-FLAG-BRCC36 with GST-BRCA1 fragment, anti-FLAG western blot
[2] = biological target: GST-BRCA1 fragment F3 (BRCA1 residues 502-802) (Homo sapiens (Human)) (UniProt P38398); assay: as above
[3] = biological target: GST-BRCA1(1-639)/FLAG®-BARD1 heterodimer (Homo sapiens (Human)) (UniProt P38398); assay: GST pull-down from bacterial whole cell extract, anti-FLAG western blot
[4] = biological target: GST-BRCA1 (1-639) (Homo sapiens (Human)) (UniProt P38398); assay: as above
[5] = biological target: BRCC36 (endogenous) (Homo sapiens) (UniProt P46736); assay: affinity purification of the truncated BARD1 complex from stable cell lines (co-purification; may be indirect)
[6] = biological target: BRE (human (endogenous protein of human 293 / H1299 cells)); assay: as above
[7] = biological target: T1, BRCC130 (human (endogenous protein of human H1299 cells)) (UniProt Q86UV5); assay: as above
T1 sequence: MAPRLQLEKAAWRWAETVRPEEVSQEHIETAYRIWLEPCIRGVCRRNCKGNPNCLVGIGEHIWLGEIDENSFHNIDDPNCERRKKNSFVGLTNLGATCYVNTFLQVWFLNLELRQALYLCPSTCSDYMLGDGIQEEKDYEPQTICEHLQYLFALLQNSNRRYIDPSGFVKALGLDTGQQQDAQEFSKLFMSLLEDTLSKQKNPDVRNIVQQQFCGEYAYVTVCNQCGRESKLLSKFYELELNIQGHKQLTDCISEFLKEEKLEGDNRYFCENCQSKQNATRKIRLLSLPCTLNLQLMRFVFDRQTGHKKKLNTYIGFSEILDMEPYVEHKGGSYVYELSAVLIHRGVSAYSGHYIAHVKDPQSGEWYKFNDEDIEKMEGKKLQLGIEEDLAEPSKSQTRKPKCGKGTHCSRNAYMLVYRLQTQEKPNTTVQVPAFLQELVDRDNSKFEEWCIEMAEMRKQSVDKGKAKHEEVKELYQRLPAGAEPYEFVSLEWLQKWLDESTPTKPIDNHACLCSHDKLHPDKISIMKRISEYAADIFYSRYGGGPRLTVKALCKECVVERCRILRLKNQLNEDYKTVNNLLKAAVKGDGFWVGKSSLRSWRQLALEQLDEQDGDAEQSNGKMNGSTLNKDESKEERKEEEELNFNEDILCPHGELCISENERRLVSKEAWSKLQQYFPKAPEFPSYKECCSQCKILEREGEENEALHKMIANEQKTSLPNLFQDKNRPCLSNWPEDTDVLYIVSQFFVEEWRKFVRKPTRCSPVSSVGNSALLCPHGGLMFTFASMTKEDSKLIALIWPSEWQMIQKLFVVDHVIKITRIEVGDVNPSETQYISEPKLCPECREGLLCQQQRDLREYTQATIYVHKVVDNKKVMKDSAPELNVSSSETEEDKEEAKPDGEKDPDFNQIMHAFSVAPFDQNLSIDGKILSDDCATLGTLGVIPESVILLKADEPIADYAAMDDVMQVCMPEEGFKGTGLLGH

[8] = biological target: BRCC300 (human (endogenous protein of human H1299 cells)); assay: as above
[9] = biological target: T2, BRCC80 (human (endogenous protein of human H1299 cells)) (UniProt Q96RL1); assay: as above
T2 sequence: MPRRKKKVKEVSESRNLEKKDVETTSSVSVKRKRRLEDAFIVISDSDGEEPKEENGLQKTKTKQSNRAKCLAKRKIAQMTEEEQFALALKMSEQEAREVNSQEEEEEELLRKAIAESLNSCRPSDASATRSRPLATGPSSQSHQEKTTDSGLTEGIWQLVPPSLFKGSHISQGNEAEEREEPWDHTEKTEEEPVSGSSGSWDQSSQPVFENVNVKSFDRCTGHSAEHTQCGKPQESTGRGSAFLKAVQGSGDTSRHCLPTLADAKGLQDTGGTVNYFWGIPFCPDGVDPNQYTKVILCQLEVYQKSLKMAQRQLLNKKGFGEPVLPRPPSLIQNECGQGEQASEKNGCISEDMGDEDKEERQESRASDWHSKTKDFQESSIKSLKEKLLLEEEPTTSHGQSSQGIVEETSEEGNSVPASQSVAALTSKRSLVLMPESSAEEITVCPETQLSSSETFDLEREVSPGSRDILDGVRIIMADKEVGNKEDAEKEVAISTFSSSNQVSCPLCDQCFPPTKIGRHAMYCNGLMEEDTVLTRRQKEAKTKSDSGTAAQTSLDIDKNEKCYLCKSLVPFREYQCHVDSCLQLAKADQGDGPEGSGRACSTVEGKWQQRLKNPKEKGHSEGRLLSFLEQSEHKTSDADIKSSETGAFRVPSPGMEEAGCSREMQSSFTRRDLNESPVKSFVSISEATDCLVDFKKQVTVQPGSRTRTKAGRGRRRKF

[10] = biological target: T3, BRCC140 (human (endogenous protein of human H1299 cells)) (UniProt Q86YC2); assay: as above
T3 sequence: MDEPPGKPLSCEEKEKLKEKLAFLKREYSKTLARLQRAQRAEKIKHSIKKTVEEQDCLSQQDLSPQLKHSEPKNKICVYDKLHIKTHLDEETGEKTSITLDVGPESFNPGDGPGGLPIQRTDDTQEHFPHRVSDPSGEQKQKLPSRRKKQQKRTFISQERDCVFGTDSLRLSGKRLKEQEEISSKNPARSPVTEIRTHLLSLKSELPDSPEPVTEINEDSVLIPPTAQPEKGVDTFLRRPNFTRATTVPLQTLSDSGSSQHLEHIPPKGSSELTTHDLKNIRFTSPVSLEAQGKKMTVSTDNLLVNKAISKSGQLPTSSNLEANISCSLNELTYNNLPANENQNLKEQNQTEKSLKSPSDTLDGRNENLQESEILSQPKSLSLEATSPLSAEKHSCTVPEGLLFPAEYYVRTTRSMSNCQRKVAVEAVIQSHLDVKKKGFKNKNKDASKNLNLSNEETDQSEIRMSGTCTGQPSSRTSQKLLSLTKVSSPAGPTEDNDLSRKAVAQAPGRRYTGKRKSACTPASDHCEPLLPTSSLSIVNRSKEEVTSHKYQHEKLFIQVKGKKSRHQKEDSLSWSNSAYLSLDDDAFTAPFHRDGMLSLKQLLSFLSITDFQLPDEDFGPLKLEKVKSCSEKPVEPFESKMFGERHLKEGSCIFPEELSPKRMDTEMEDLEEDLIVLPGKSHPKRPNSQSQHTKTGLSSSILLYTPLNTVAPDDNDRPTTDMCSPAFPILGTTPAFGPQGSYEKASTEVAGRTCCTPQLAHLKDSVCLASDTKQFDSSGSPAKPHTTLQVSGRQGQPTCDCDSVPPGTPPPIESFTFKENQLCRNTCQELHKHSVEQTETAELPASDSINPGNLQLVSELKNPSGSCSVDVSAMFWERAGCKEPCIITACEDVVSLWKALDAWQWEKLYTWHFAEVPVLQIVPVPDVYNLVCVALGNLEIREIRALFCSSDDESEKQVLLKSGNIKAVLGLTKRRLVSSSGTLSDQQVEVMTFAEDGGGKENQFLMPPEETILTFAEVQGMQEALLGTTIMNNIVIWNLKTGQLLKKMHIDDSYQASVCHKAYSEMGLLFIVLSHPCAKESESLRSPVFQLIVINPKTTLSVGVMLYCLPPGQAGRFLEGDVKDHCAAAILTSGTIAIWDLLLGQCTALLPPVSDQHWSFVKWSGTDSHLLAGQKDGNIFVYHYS

Measured: binding

(His)6-FLAG®-BRCC36 protein (from UniProt P46736 1-316)
binds: [1] | [2] | [3] | [4]

truncated form of BARD1 (1-398) (from UniProt Q99728 1-398)
binds: [5] | [6] | [7] | [8] | [9] | [10]
